Our source for the z-score values is PubChem BioAssay AID1508600 (Functional Genomics Laboratory (NCATS/FGL), 2020).

Among all 53,000 sequences or so, about 3,700 (7%) were called active.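 How the source made its calls: active means gene knockdowns whose robust z-score for IL-1 alpha signal is at least 2 or at most -2, so actives lie on both sides; inactive means the rest.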 This is one part of the list.

The nature of the assay: Components of the Cytosolic LPS Sensing Pathway: Gene Identification via Genome-wide siRNA Screen.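 Further: robust z of the log signal after scaling to non-targeting control siRNA wells of the plate.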 The note with it: RAW264.7 macrophages, IL-1a HTRF, actives lie on both sides, screened at 100 nM (by protocol), cells primed 5 h with Pam3CSK4 first. Summed up:
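RAW264.7; siRNA 100 nM final, RNAiMAX, 48h 37 degrees C; Pam3CSK4 5 h; LipidA + TransIT-TKO 24 h; IL-1a HTRF; CellTiter-Glo viability; robust z vs negative-control median.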
Regarding CCUUUGACGGCCAUGAGUATT against Muc6, the z-score is inactive: -1.39.

As for GGCAGAGAAGGAGAAACAGTT against Hmg20b, the z-score is inactive: -0.35.

Take GAACUGGGCCUAGAACUUGTT against Aspdh: the z-score was inactive: -0.481.

As to CGGUUUCUUACCAGCAAUUTT against Mgmt, the z-score is inactive: -0.237.

In the case of CGACUUUGGAGAAUUUCAATT against Synrg, the z-score was inactive: -0.573.

With CGACACCAUUCAGAUUGAUTT against Rps4x, the z-score was inactive: -0.119.

With GGCAGCAAGGAAACUAUUATT against Kpna3, the z-score was inactive: 1.39.

GGCUCUGUGGCAAUCUUGUTT against Olfr1225: the z-score was inactive: -1.07.

For the sequence CCAUGACUACCUGCCUCUGTT against Vwa5b2, the z-score was inactive: 0.144.

With GGAUAAUUUUGGAAGCAGATT against Rheb, the z-score was inactive: -0.299.

Turning to GGACACUAUCCCAUUUCUATT against Slc7a15, the z-score was inactive: -0.368.

On to GCCAUACCUUCAACUGUCGTT against Ncoa2, for which the z-score is active: -2.42.

Take CCAAGGACGGCCUUACACUTT against Spout1: the z-score was inactive: 0.356.

GGUGUUUGAUAAUGAAGAGTT against Dnah1: the z-score is inactive: -0.214.

For the sequence CCGAAGUGGACGAAUACUUTT against Csrnp3, the z-score is inactive: 0.207.

Consider GGAGGUCAUCAACGUGCUATT against Nucb1, for which the z-score was inactive: -0.339.

Turning to GGUGAGCUGAAAUGAGGUGTT against H2-DMb1, the z-score was inactive: 0.571.

GGAGAUAAAGGCUCUCUUCTT against Tmem234: the z-score was inactive: 1.61.

In the case of GGAAGAUAGGAGCUACAAATT against Mr1, the z-score is inactive: -0.553.

Turning to CGAUUCAGAUUGCACUUGUTT against Katnb1, the z-score is inactive: 0.198.

Consider GCCUAGCUUUCUUGUAUUATT against Tas2r144, for which the z-score was inactive: -1.41.

Take GGCUAAACCUACAAUAUGUTT against Tox3: the z-score was inactive: -1.3.

In the case of GGAAAACCAGCUAAUUAUCTT against Ptger3, the z-score was inactive: -0.23.

In the case of CGACUUCGCCUUAUGAGAUTT against Tst, the z-score was inactive: -1.19.

For the sequence GGAUUCUGUUCAACAUUGGTT against Olfr1148, the z-score is inactive: 1.97.

Turning to CCAAGCUUCCUUCUAAAUATT against Lin52, the z-score was inactive: 0.669.

GGAGGAUACACAGAGGCAUTT against Tcap: the z-score is inactive: -1.68.

With CGGCAGUGGAACAAUAGACTT against Capsl, the z-score was inactive: 1.89.

In the case of CCAUAUACCCUCGAUGCCATT against Abhd16b, the z-score is active: -2.76.

With GCUUGAAUAUGAGAACGAATT against Deup1, the z-score was inactive: -0.451.

For the sequence GGAAAAGGCUACGGCAUUUTT against Tapbp, the z-score is inactive: -1.01.

On to CCAUCCUUCCAAUUAUGAATT against Rhot1, for which the z-score was inactive: -0.0332.

For GCUCUGCCUUCAGAUGAUCTT against Olfr172, the z-score is inactive: -0.592.

GGUGUUGCUGGUGAAGGACTT against Aifm3: the z-score was inactive: -0.965.

For the sequence GGCAUGUGGAAAACCUCCUTT against Lrrc46, the z-score is inactive: -0.413.

For GCACAGAGGUCAGUUAAAGTT against St8sia3, the z-score was inactive: 1.

With GGAACACUGGAUUAUUGAGTT against Gamt, the z-score is inactive: 0.326.

For the sequence GGCUAGUGGAACACUUUAGTT against Zfp846, the z-score was inactive: -0.682.

As for GGGAGAAAUGCAAAUAUUUTT against Mbnl2, the z-score was inactive: -0.37.

Turning to GCUCUAGAAAGUUACAGAUTT against Crtam, the z-score is inactive: 0.317.

As to GCUUCCACGUGUUUGACCATT against Hsf1, the z-score was inactive: -0.4.

Consider GGAAAAGCUAAUAAAAGCUTT against Ptgis, for which the z-score is inactive: 0.649.

For GGCGACAUUCUCAUCCUAATT against Slc38a1, the z-score was inactive: -1.45.

CCAAGACCCAAACUUACUGTT against Tnnt3: the z-score was inactive: -0.368.

In the case of GCAAGUCCAUUCUUUUUCATT against Tmprss11g, the z-score was inactive: -0.643.

In the case of GGUUCUCAUAACGACCAAUTT against Ddx25, the z-score is inactive: -0.0618.

With GGGAGUAUCCAUUCAAGCCTT against Ube2l6, the z-score was inactive: 0.722.

GGCGAACACCAUGAAAAGGTT against Lin7b: the z-score is inactive: 0.794.

Turning to GGUUAUGGUUUUGUUGACUTT against Rbms1, the z-score was inactive: -0.606.

Regarding GGAAAGAAAUUGUAAAUGGTT against Nrcam, the z-score was inactive: -0.122.

Consider GGCUGACAGUAACAAGUGGTT against Fignl1, for which the z-score was active: 3.72.

Consider GGAGUGACACUAUUGGGAATT against Gm10283, for which the z-score is inactive: 0.671.

With GGCAGAGAAAACAAGAUUATT against Arc, the z-score is inactive: -0.226.

As to GGCAAUACAAACAAGUUCUTT against Klhdc2, the z-score is inactive: 1.05.

CCAUAUUUGAAGUUUGAACTT against Rundc3b: the z-score was inactive: 0.612.

Consider GGAGGAAAGACGAAUCAACTT against Clcn7, for which the z-score is inactive: 1.44.

As for GGGCAUUUCAUACAACUCATT against Wnk1, the z-score was inactive: -1.03.

For CGUGUAAACGCAAUUAAAATT against Zfp870, the z-score was inactive: 0.272.

For the sequence GGAGAGACCACCCUUUCAGTT against Fahd2a, the z-score was inactive: -0.432.

CCAUUAUGUCGAUUCUAUCTT against Ndp: the z-score was inactive: -0.062.

For the sequence CCCUCCACUAUGAUCAAUCTT against Adgrg1, the z-score was inactive: 0.506.

For CGAGUAAAAGAGAUCUACATT against Eya1, the z-score was inactive: 1.51.

Turning to GCAACGAGGUACUGUUUUATT against Rab7b, the z-score is inactive: 0.626.

In the case of GCUGCUCAAUCGGAAAUACTT against Clk1, the z-score is active: -2.06.

On to “GGGAGCUCCUUACAGAGACTT against 1700041G16Rik”, for which the z-score is inactive: -0.102.

With GGGCCAUCCUUUGGUUACATT against Dtnb, the z-score is inactive: -0.25.

Consider GCGACAAAUCAAAAAGGCCTT against Dnajb9, for which the z-score was inactive: -0.0942.

Consider GGAACACAAUGGAGACACATT against Prdm15, for which the z-score is inactive: 1.69.
